Results deposited as PubChem BioAssay AID1259405 (NCATS, 2018)

Screen: 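Silenced genes that increase secreted GFP made by CHO cells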 (primary screen)
Cells: Chinese hamster CHO-K1 ovary cells with stable secreted eGFP expression
Reagents: single siRNA against mouse genes, 0.8 pmol siRNA per well (2 µl of 400 nM stock)
Time to read-out: 3 days
Measurement: 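Percent of the per-plate non-targeting control median for intracellular GFP per well by laser scanning cytometry and for cell viability by ATP luminescence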
Reading the numbers: GFP, % of control: higher = more GFP per well, higher productivity; viability (ATP), % of control: higher = more viable cells (more ATP)
Call rule: 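Called active when intracellular GFP, relative to negative control, is at or above 120%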
This is a random part of about 50,000 reagents tested. About 4,000 of them (8%) count as active. 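Mouse siRNA library applied to hamster cells; one well for each siRNA.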 The numbers tell different reagents against one gene apart.

| gene symbol | reagent no. | GFP, % of control | viability (ATP), % of control | call |
| --- | --- | --- | --- | --- |
| Abt1 | 1 | 100 | 53.8 | inactive |
| Abt1 | 2 | 122 | 76.1 | active |
| Abt1 | 3 | 75.9 | 80.8 | inactive |
| Rp9 | 1 | 31.4 | 34.7 | inactive |
| Rp9 | 2 | 79.6 | 67.8 | inactive |
| Rp9 | 3 | 55.9 | 50.5 | inactive |
| Rtn4 | 1 | 103 | 68.2 | inactive |
| Rtn4 | 2 | 75.3 | 97.6 | inactive |
| Rtn4 | 3 | 31.3 | 47.5 | inactive |
| Tsx | 1 | 70.6 | 69.5 | inactive |
| Tsx | 2 | 98.1 | 117 | inactive |
| Tsx | 3 | 85.4 | 60.5 | inactive |
| Usp54 | 1 | 61.7 | 60.9 | inactive |
| Usp54 | 2 | 62.9 | 61.9 | inactive |
| Usp54 | 3 | 87.6 | 74.6 | inactive |
| Usp54 | 4 | 89.9 | 80.8 | inactive |
| Usp54 | 5 | 77.8 | 62.3 | inactive |
| Usp54 | 6 | 104 | 98.1 | inactive |
| S1pr5 | 1 | 70.1 | 75.2 | inactive |
| S1pr5 | 2 | 94 | 66.9 | inactive |
| S1pr5 | 3 | 90.7 | 92.7 | inactive |
| Fgr | 1 | 105 | 80.4 | inactive |
| Lrrc75b | 1 | 119 | 51.9 | inactive |
| Lrrc75b | 2 | 83.2 | 91.8 | inactive |
| Lrrc75b | 3 | 263 | 42.5 | active |
| Lrrc75b | 4 | 98.3 | 81.7 | inactive |
| Lrrc75b | 5 | 81 | 85.9 | inactive |
| Lrrc75b | 6 | 82 | 89 | inactive |
| Or8b41 | 1 | 75.2 | 75.2 | inactive |
| Or8b41 | 2 | 92.3 | 81.9 | inactive |
| Or8b41 | 3 | 74.2 | 1.42 | inactive |
| Dgkeos | 1 | 87.6 | 52.7 | inactive |
| Dgkeos | 2 | 197 | 28.7 | active |
| Dgkeos | 3 | 65.2 | 53.5 | inactive |
| Tas2r107 | 1 | 71 | 89.7 | inactive |
| Tas2r107 | 2 | 91.1 | 82.4 | inactive |
| Tas2r107 | 3 | 71.1 | 66 | inactive |
| Rap1b | 1 | 65.7 | 62.7 | inactive |
| Rap1b | 2 | 71.7 | 63.1 | inactive |
| Rap1b | 3 | 40 | 56.1 | inactive |
| Dpf2 | 1 | 54.6 | 70.7 | inactive |
| Dpf2 | 2 | 52.2 | 41 | inactive |
| Dpf2 | 3 | 101 | 93.5 | inactive |
| Mrgprx1 | 1 | 52.4 | 107 | inactive |
| Mrgprx1 | 2 | 79.7 | 62.9 | inactive |
| Mrgprx1 | 3 | 69.4 | 83.4 | inactive |
| Mlec | 1 | 103 | 71.3 | inactive |
| Mlec | 2 | 53.6 | 50.4 | inactive |
| Mlec | 3 | 49.9 | 68.6 | inactive |
| Msgn1 | 1 | 136 | 81.2 | active |
| Msgn1 | 2 | 134 | 64.3 | active |
| Msgn1 | 3 | 102 | 66.1 | inactive |
| Fam89b | 1 | 82.8 | 70.6 | inactive |
| Fam89b | 2 | 50.4 | 92.7 | inactive |
| Fam89b | 3 | 68.5 | 48.6 | inactive |
| Zfp78 | 1 | 92.4 | 75.7 | inactive |
| Zfp78 | 2 | 55.1 | 46.7 | inactive |
| Dcun1d1 | 1 | 96.1 | 81 | inactive |
| Dcun1d1 | 2 | 71.2 | 112 | inactive |
| Dcun1d1 | 3 | 107 | 149 | inactive |
| Vmn1r201 | 1 | 60.6 | 48 | inactive |
| Vmn1r201 | 2 | 70.3 | 93.5 | inactive |
| Vmn1r201 | 3 | 83.5 | 98.8 | inactive |
| D830050J10Rik | 1 | 64.6 | 75.1 | inactive |
| D830050J10Rik | 2 | 50.6 | 75.3 | inactive |
| D830050J10Rik | 3 | 57.8 | 58.9 | inactive |
| Aoc3 | 1 | 93.1 | 106 | inactive |
| Aoc3 | 2 | 67 | 55.9 | inactive |
| Aoc3 | 3 | 64.5 | 70.4 | inactive |
| Rhou | 1 | 64 | 38.5 | inactive |
| Rhou | 2 | 28.6 | 41.9 | inactive |
| Rhou | 3 | 70.3 | 76.2 | inactive |
| Sebox | 1 | 78.4 | 77.5 | inactive |
| Sebox | 2 | 60.7 | 55.3 | inactive |
| Sebox | 3 | 75.4 | 86.1 | inactive |
| Rpl9 | 1 | 84 | 97.9 | inactive |
| Rpl9 | 2 | 52.8 | 36.7 | inactive |
| Rpl9 | 3 | 24.3 | 18 | inactive |
| Rapsn | 1 | 160 | 117 | active |
| Rapsn | 2 | 111 | 79 | inactive |
| Or7g19 | 1 | 84.1 | 66.2 | inactive |
| Or7g19 | 2 | 82.6 | 72.6 | inactive |
| Or7g19 | 3 | 102 | 77.2 | inactive |
| Stx1b | 1 | 64.5 | 69.4 | inactive |
| Stx1b | 2 | 58 | 35.9 | inactive |
| Stx1b | 3 | 115 | 108 | inactive |
| Stx1b | 4 | 124 | 74.6 | active |
| Stx1b | 5 | 72.5 | 75.9 | inactive |
| Stx1b | 6 | 66.8 | 76.5 | inactive |

An excerpt of the results above, for reference:
| gene symbol | reagent no. | GFP, % of control | viability (ATP), % of control | call |
| --- | --- | --- | --- | --- |
| Lrrc75b | 4 | 98.3 | 81.7 | inactive |
| Lrrc75b | 5 | 81 | 85.9 | inactive |
| Lrrc75b | 6 | 82 | 89 | inactive |
| Or8b41 | 1 | 75.2 | 75.2 | inactive |
| Or8b41 | 2 | 92.3 | 81.9 | inactive |
| Or8b41 | 3 | 74.2 | 1.42 | inactive |
| Dgkeos | 1 | 87.6 | 52.7 | inactive |
| Dgkeos | 2 | 197 | 28.7 | active |
| Dgkeos | 3 | 65.2 | 53.5 | inactive |
| Tas2r107 | 1 | 71 | 89.7 | inactive |
| Tas2r107 | 2 | 91.1 | 82.4 | inactive |
